# Measured values as given in publication PMC12040169 (PLOS Biology, 2025).
# Some of the results follow.
# Test system: T1, CTL2-GFP (C. trachomatis L2/434/Bu, GFP-expressing)
# T1 construct: L2/434/Bu, GFP-expressing
# Set-up: species or system HeLa; Intracellular C. trachomatis growth in HeLa cells, bulk GFP fluorescence relative to DMSO
# Details: bulk GFP, single well; 28.5 h, 10 µM; inhibitor
row,Compound,% of control remaining
1,CCn1c(=O)n(CC(=O)N(C)C2CCCCC2)c2cccnc21 [CBK283786],144.36%
2,O=C(c1cccnc1)N1CCN(C(=O)c2ccco2)CC1 [CBK072684],94.8602%
3,Cc1ccc(S(N)(=O)=O)cc1C(=O)NC(C)CCc1ccccc1 (stereo not drawn) [CBK296671],141.83%
4,CC(C)(C)OC(=O)NC1CCN(C(=O)Nc2ccc(OCc3ccccc3)cc2)CC1 [CBK086602],98.5191%
5,OC(CN1CCC(O)(c2ccccc2F)CC1)c1ccccc1 (stereo not drawn) [CBK282490],98.2209%
6,Cc1cc(C)c(S(=O)(=O)NCCSCCC(=O)O)c(C)c1 [CBK013358],130.975%
7,COc1ccc(CCNC(=O)CN2CCCC2c2cnn(C)c2)cc1 (stereo not drawn) [CBK305371],122.7%
8,Cc1ccc2c(C(=O)Nc3sc4c(c3C(N)=O)CCCCC4)cc(-c3ccccn3)nc2c1C [CBK267749],130.725%
9,COCc1nc2n(n1)CC(NC(C)C(C)OCc1ccccc1)CC2 (stereo not drawn) [CBK304724],105.371%
10,CSC(C)CCN1CCn2nc(CNc3cnccn3)cc2C1 (stereo not drawn) [CBK307376],153.657%
11,CCc1cc(=O)[nH]c(-c2ccc(N(C)CC(C)O)nc2)n1 (stereo not drawn) [CBK306484],109.95%
12,CC(=O)Nc1ccc(S(N)(=O)=O)cc1Cl [CBK028784],124.957%
13,CCc1nnc(NS(=O)(=O)c2ccc(OC(F)(F)F)cc2)s1 [CBK026672],108.167%
14,CN1CCN(C(=S)Nc2ccc(S(N)(=O)=O)cc2)CC1 [CBK265223],121.312%
15,O=C(Nc1ccc(I)cc1C(=O)NCCN1CCOCC1)c1ccco1 [CBK266211],131.718%
16,Fc1ccc(-c2cncc(Nc3ccc4c(c3)OC(F)(F)C(F)(F)O4)n2)c(F)c1 [CBK065692],156.019%
17,Cc1c(Br)c(C(F)(F)F)nn1CC(=O)Nc1cc(C(F)(F)F)ccc1Cl [CBK087518],100%
18,CNC(=O)CSc1nnc2[nH]c(=O)c(C)c(C)n12 [CBK287687],97.3974%
19,O=C(CSc1nnc(-c2cccnc2)o1)Nc1ccccc1 [CBK287742],122.324%
20,CS(=O)(=O)c1ccc(Cn2ccnc(OC3CCN(C(=O)c4ccc(C#N)cc4)CC3)c2=O)cc1 [CBK161804],104.084%
21,Cc1nn(C)cc1C(C)NC(=O)c1cn2cccc(C)c2n1 (stereo not drawn) [CBK281731],146.479%
22,COc1ccc(-c2ccnc(N[C@H]3CO[C@H]4[C@@H]3OC[C@@H]4NC(=O)c3ccccc3)n2)cc1 [CBK289526],108.44%
23,CC(NC(=O)Cn1c(=O)oc2ccc(Cl)cc21)C1CC2CCC1C2 (stereo not drawn) [CBK281636],112.134%
24,COCCNC(=O)c1cc(-c2ccccc2C)cnc1NS(C)(=O)=O [CBK106422],100%
25,Cc1cnc2c(C(=O)Nc3cccc(CCc4ccncc4)c3)cnn2c1 [CBK285558],124.215%
26,CN(C)CCNC(=O)c1cccc(-c2cncc(N3CCN(c4ccncc4)CC3)n2)c1 [CBK065391],159.248%

row,Compound,% of control remaining
1,CCN1CC2(CCN(CC3CC3)CC2)c2ccccc21 [CBK136987],88.8909%
2,CN(C)CC1CCCCN1C(=O)C1C2CCCCC21 (stereo not drawn) [CBK282087],102.973%
3,CC(C)n1ccnc1CN1CCn2nc(CNc3cnccn3)cc2C1 [CBK306902],141.02%
4,CCc1nnc(NS(=O)(=O)c2cc(C(=O)O)c(Cl)cc2F)s1 [CBK062195],113.235%
5,O=C(NCC1(c2ccccc2F)CCOCC1)[C@@H]1C[C@@H]2C=C[C@H]1C2 [CBK281552],127.812%
6,CCn1cc(CC(=O)Nc2cccc(-n3cnnc3)c2)c2ccccc21 [CBK282669],134.554%
7,CCOC(=O)C(C)n1nc(C)n2c(cc3sccc32)c1=O (stereo not drawn) [CBK283333],143.183%
8,CN(C)S(=O)(=O)c1ccc(C(=O)Nc2ccc(-c3ccccc3)cc2)cc1 [CBK264978],117.687%
9,CN(C)S(=O)(=O)N(CC(=O)NCc1ccncc1)c1ccccc1 [CBK268322],130.377%
10,O=C(CSc1nnc(CN2CCOCC2)n1-c1ccc(Cl)cc1)N1CCc2ccccc21 [CBK269008],96.9474%
11,Cn1nnc2c(N3CCN(C(=O)c4ccccc4)CC3)ncnc21 [CBK287830],130.487%
12,O=C(C1CCCC1)N1CCC[C@@H]1Cn1c(=O)oc2ccccc21 [CBK284539],154.792%
13,COc1nccnc1OC1CCN(Cc2ccccc2)CC1 [CBK084238],113.188%
14,COc1ccc(OC)c(C2CC(c3ccc(NS(C)(=O)=O)cc3)=NN2C(=O)CCC(=O)O)c1 (stereo not drawn) [CBK297781],110.125%
15,Clc1ccc(-n2ncc(-c3cccnc3)n2)cc1Cl [CBK112814],90.624%
16,O=C(O)CCC(=O)NCc1ccc(-c2nccnc2NS(=O)(=O)c2ccc(O)cc2)cc1 [CBK073843],81.8376%
17,COC(=O)c1ccccc1NC(=O)CSc1nc(C)cc(C)n1 [CBK263818],100.947%
18,CC(C)C(=O)N1C2CCC1Cn1c(nc3ccccc3c1=O)C2 (stereo not drawn) [CBK284450],132.697%
19,CC(C)(C)C(=O)CN1CCC(C(=O)NC(c2ccccc2)c2ccco2)CC1 (stereo not drawn) [CBK148298],143.867%
20,Cc1nc(NS(=O)(=O)c2cc(F)c(Br)cc2F)sc1C(=O)O [CBK045556],107.762%
21,Cc1ccccc1NC(=O)CC(C(=O)O)N(C)C (stereo not drawn) [CBK266924],159.961%
22,O=C(NOCc1ccccc1)c1nn(-c2ncccn2)c2ccccc12 [CBK048503],132.33%
23,COc1ccc(-c2cn(-c3cc(Cl)ccc3C)nn2)cc1 [CBK113023],89.0181%
24,COc1cncc(-c2ccc(N3CCN(C(=O)c4ccco4)CC3)nc2)c1 [CBK037801],84.2574%
25,CN1CCN(C(=O)c2c(NS(=O)(=O)c3cc(F)c(Br)cc3F)sc3c2CCCC3)CC1 [CBK050419],102.741%
26,CCCC/C=C/c1nccnc1NCC1CC1 [CBK037268],151.986%

row,Compound,% of control remaining
1,O=C(c1ccc(-c2ccc(F)cc2)o1)N1CCC(n2c(=O)oc3ccccc32)CC1 [CBK286175],74.6505%
2,C=CCn1c(-c2sc(NC(=O)c3ccc(CNC(=O)NC(C)C)cc3)nc2C)n[nH]c1=S [CBK297764],92.3482%
3,CN(C)C(=O)CN1C(=O)CC2(C1=O)C(=O)N(C)c1ccc(Cl)cc12 (stereo not drawn) [CBK075232],120.56%
4,CC1(C)CC(NC(=O)c2cc(Cn3ccc4ccccc43)[nH]n2)CCO1 (stereo not drawn) [CBK307092],105.042%
5,NC(=O)C1CCN(CC(O)COc2ccc(-c3ccccc3)cc2)CC1 (stereo not drawn) [CBK269528],122.581%
6,O=C(Cn1cnc2c(cnn2-c2ccc(F)cc2)c1=O)Nc1ccc(F)cc1F [CBK287537],147.504%
7,Cc1nc2c3c(sc2c(=O)[nH]1)NC(=O)CC3c1ccccc1 (stereo not drawn) [CBK288094],132.62%
8,Cc1nc2ccc(C(=O)NC3=NC(=O)CS3)cn2c1N(C)Cc1cccs1 [CBK146110],164.169%
9,Cc1ccc(S(=O)(=O)N(CC(O)CN2C(=O)NC(C)(C)C2=O)c2ccccc2[N+](=O)[O-])cc1 (stereo not drawn) [CBK263572],83.058%
10,O=C(O)c1cccc(Sc2nc3cc(Cl)c(Cl)cc3nc2N2CCCC2)c1 [CBK093588],103.975%
11,CC1CCCN(C(=O)Cn2ncn3c(cc4ccsc43)c2=O)C1 (stereo not drawn) [CBK284245],137.084%
12,N#Cc1c(NC(=O)CSc2nnnn2-c2ccc(C(=O)O)cc2)sc2c1CCCC2 [CBK299876],172.045%
13,CCCNc1nc(O)cc(C(F)(F)F)n1 [CBK000214],121.733%
14,COC(=O)CCN(C)CCC(=O)OC [CBK264539C],135.67%
15,CCn1cc(NS(=O)(=O)c2ccc(N3CCCC3=O)cc2)cn1 [CBK305922],116.815%
16,OC(CN1CCC2(CC1)CC(O)c1cc(F)ccc1O2)c1ccc(-c2ccccc2)cc1 (stereo not drawn) [CBK286331],69.0364%
17,CC(=O)NCC12CC3CC(C1)CC(C(=O)O)(C3)C2 [CBK286768],140.892%
18,O=C(CN1C2CCC1CC(O)(c1ccco1)C2)N1c2ccccc2CCc2ccccc21 (stereo not drawn) [CBK286168],114.249%
19,COc1ccccc1N1CCN(C(=O)CN2C(=O)c3ccccc3C2=O)CC1 [CBK091501],120.276%
20,Cc1ccc(C(=O)N2CN(C(=O)CNCC(C)C)CC2(C)C)cc1 [CBK089576C],108.242%
21,CC1CCc2c(sc(NC(=O)c3cc(-c4cccnc4)nc4ccc(Cl)cc34)c2C(N)=O)C1 (stereo not drawn) [CBK267762],98.5859%
22,Cc1nccn1CCNC(=O)c1ccccc1Cn1cccn1 [CBK281979],117.826%
23,O=C(O)c1cn(C2CC2)c2cc(N3CCN(C(=O)C4CCCO4)CC3)c(F)cc2c1=O (stereo not drawn) [CBK297139],8.519%
24,Cn1nc(-c2ccc(F)cc2)cc1[C@H]1CN2CC[C@H]1C[C@@H]2CNS(C)(=O)=O [CBK289109],111.268%
25,CC(C)(C)c1cc(C(=O)N2CCn3cc(C(F)(F)F)nc3C2)[nH]n1 [CBK284748],101.916%
26,CCCN(c1nc(C)c(Br)c(OC)n1)S(=O)(=O)c1ccc(C)cc1 [CBK028072],76.4047%

# Copied from the list:
# Cc1ccc(C(=O)N2CN(C(=O)CNCC(C)C)CC2(C)C)cc1 [CBK089576C] | % of control remaining: 108.242%
# N#Cc1c(NC(=O)CSc2nnnn2-c2ccc(C(=O)O)cc2)sc2c1CCCC2 [CBK299876] | % of control remaining: 172.045%
# CC(=O)NCC12CC3CC(C1)CC(C(=O)O)(C3)C2 [CBK286768] | % of control remaining: 140.892%
# O=C(CN1C2CCC1CC(O)(c1ccco1)C2)N1c2ccccc2CCc2ccccc21 (stereo not drawn) [CBK286168] | % of control remaining: 114.249%
# COc1ccccc1N1CCN(C(=O)CN2C(=O)c3ccccc3C2=O)CC1 [CBK091501] | % of control remaining: 120.276%
